PubChem BioAssay AID1671195 – Yale University, 2021
Here is a random part of about 22,000 reagents tested. About 1,510 of all reagents (6.9%) count as active. 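Active includes knockdowns raising or lowering LDL uptake; positive z-scores mean more uptake, negative mean less.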 Entries without a mark were called inactive. Reagents against one gene are numbered here.

- Purpose: 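Regulators of LDL receptor activity judged by labelled LDL uptake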 (primary screen)
- Cells: human Huh7 hepatoma cells
- Knock-down reagent: siRNA pool against human genes, 18 nM
- Timing: about 2 to 2.5 days of knockdown, then 8 h LDL uptake
- Treatment: DiI-labelled LDL at 30 µg/ml for 8 h, in lipoprotein-deficient serum medium
- Detection: 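Per-cell DiI-LDL intensity by automated imaging; well means scaled to the plate median and given as a robust z-score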
- Reading the numbers: robust z-score: higher = more LDL uptake after knockdown
- Call rule: 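a gene counts as active if at least two replicate z-scores exceed ±2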

Silencing of NBPF17P (GeneID 401967) gave: robust z-score, replicate 1 = 0.0988; robust z-score, replicate 2 = 0.651; robust z-score, replicate 3 = 0.161.
Against SHPRH (GeneID 257218) the deposit lists robust z-score, replicate 1 = -0.791; robust z-score, replicate 2 = -0.56; robust z-score, replicate 3 = -0.407.
After knock-down of PSMB11 (GeneID 122706), the record shows robust z-score, replicate 1 = -1.03; robust z-score, replicate 2 = -1.08; robust z-score, replicate 3 = -1.18.
After knock-down of EBLN3P (GeneID 100506710) the results were robust z-score, replicate 1 = -0.764; robust z-score, replicate 2 = -0.983; robust z-score, replicate 3 = -0.342.
IMMP2L (GeneID 83943) scored robust z-score, replicate 1 = 1.29; robust z-score, replicate 2 = 0.442; robust z-score, replicate 3 = 0.593.
Against SLC25A53 (GeneID 401612), the entry reads robust z-score, replicate 1 = -0.607; robust z-score, replicate 2 = -1.05; robust z-score, replicate 3 = -1.01.
Against DDX39B (GeneID 7919), the values are robust z-score, replicate 1 = -0.00876; robust z-score, replicate 2 = -0.0252; robust z-score, replicate 3 = -0.0499.

Only “robust z-score, replicate 3”, for 2 of the entries above:
NBPF17P (GeneID 401967): 0.161
SHPRH (GeneID 257218): -0.407

Additional records follow.
Against TLN2-AS2 (GeneID 197003), the entry reads robust z-score, replicate 1 = -0.244; robust z-score, replicate 2 = 0.342; robust z-score, replicate 3 = -0.406.
Against KRT71 (GeneID 112802) the deposit lists robust z-score, replicate 1 = -0.724; robust z-score, replicate 2 = -0.52; robust z-score, replicate 3 = -0.532.
After knock-down of PDE3B (GeneID 5140), the record shows robust z-score, replicate 1 = -0.719; robust z-score, replicate 2 = 0.422; robust z-score, replicate 3 = -0.884.
Depletion of EFCAB12 (GeneID 90288) resulted in: robust z-score, replicate 1 = -0.448; robust z-score, replicate 2 = 0.0598; robust z-score, replicate 3 = 0.149.
Against TOR1AIP2 (GeneID 163590) #1 the deposit lists robust z-score, replicate 1 = -0.359; robust z-score, replicate 2 = -0.127; robust z-score, replicate 3 = -0.58.
Against TOR1AIP2 (GeneID 163590) #2, the values are robust z-score, replicate 1 = -0.842; robust z-score, replicate 2 = -0.158; robust z-score, replicate 3 = -0.878.
